Source: article PMC8120473
These are yes or no findings as the source states them, for the method shown. Binding seen in cells or lysates may run through a third protein. Some results given as binding are weak or reduced against the parent protein; the word gives no strength.

Sequences of proteins named here, by UniProt entry; tags and fusion partners are left off.
UniProt P60953: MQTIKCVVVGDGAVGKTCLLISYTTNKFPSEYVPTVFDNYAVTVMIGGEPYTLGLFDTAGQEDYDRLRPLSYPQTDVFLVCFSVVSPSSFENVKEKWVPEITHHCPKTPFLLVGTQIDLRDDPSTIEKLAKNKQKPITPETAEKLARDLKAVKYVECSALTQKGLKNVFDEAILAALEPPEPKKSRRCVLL

Molecular target: cell division cycle-42 (CDC42) (human (endogenous in HCT116 and RKO)) (UniProt P60953)
Assay: co-IP; cell lysate incubated with CDC42 antibody (rabbit, ab187643) overnight at 4 °C, A/G magnetic beads, low pH elution, blot for RhoGDIα; HCT116 and RKO cells with NDRG1 overexpression or knockdown and their controls

binding: binds
B1: RhoGDIα (protein, UniProt P52565 1-204)
chain: MAEQEPTAEQLAQIAAENEEDEHSVNYKPPAQKSIQEIQELDKDDESLRKYKEALLGRVAVSADPNVPNVVVTGLTLVCSSAPGPLELDLTGDLESFKKQSFVLKEGVEYRIKISFRVNREIVSGMKYIQHTYRKGVKIDKTDYMVGSYGPRAEEYEFLTPVEEAPKGMLARGSYSIKSRFTDDDKTDHLSWEWNLTIKKDWKD
